# The list shows a part of the results. Shown are side measurements of this screen, not its main read-out; they come without a call. Compounds called inactive in the main read-out are mostly missing here. The note in brackets gives the kind of curve behind each potency; many fits are weak.
# Experiment: qHTS Assay to Find Inhibitors of Chronic Active B-Cell Receptor Signaling
# Settings: ABC-DLBCL IkBa-CBG/CBR reporter, luminescence ratio (green luciferase fused to IkBa over red control in TMD8 lymphoma cells), 4 h
# In short: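 Compounds up to 46 uM were incubated four hours with TMD8 cells whose green CBG68 luciferase is fused to IkappaBalpha; red CBR luminescence normalised the signal, and concentration-effect curves were fitted to fusion, red and ratio data.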
# [1] = measured here: CBR red luminescence, cell number
# [2] = measured here: IkBa-CBG green luminescence
SMILES,AC50 [1],AC50 [2]
COc1ccccc1N1CCN(C(=O)c2cccc3c(=O)c(C)c(-c4ccccc4)oc23)CC1,"23.1 µM [falling, partial curve, poor fit]",–
CCOC(=O)N1CCN(C(=O)c2c[nH]c3ccc(S(=O)(=O)N(C)c4ccc(F)cc4)cc3c2=O)CC1,"6.31 µM [rising, single point]",–
Cc1ccccc1NC(=O)c1sc(NC(=O)C2CC2)nc1C,"35.5 µM [rising, single point]",–
O=C(/C=N/NC(=O)c1ccc(Cl)cc1Cl)c1ccccc1,"0.316 µM [rising, full curve, poor fit]",–
COc1ccc(Nc2oc(-c3ccco3)nc2S(=O)(=O)c2ccc(F)cc2)cc1,"6.51 µM [rising, single point]",–
CN(c1ccccc1C(=O)Nc1ccc2c(c1)n(C)c(=O)n2C)S(C)(=O)=O,"35.5 µM [rising, single point]",–
CCOC(=O)C1=C(c2ccccc2)NC(SC)=C(C#N)C1c1ccco1 (stereo unspecified),"14.1 µM [falling, single point]",–
CCC(C)(C)C1CCC(=NNC(=S)Nc2ccccc2)CC1 (stereo unspecified),"14.1 µM [falling, partial curve, poor fit]",–
COc1ccc(C=NNC(=O)c2ccccc2OCc2ccc(F)cc2)c(OC)c1,"0.517 µM [falling, full curve, poor fit]",–
CCOc1ccccc1CNC(=O)c1cc2oc3ccccc3c2n1C,"0.13 µM [rising, full curve, poor fit]",–
NC(=O)c1cc(NC(=O)COC(=O)CCCN2C(=O)c3cccc4cccc(c34)C2=O)cc(C(N)=O)c1,"3.26 µM [rising, partial curve, poor fit]",–
Cc1nc(NC(=O)CCc2ccccc2)sc1C,"10 µM [falling, partial curve, poor fit]",–
COc1ccc(C(=O)NCCn2cc(SCC(=O)NCC3CCCO3)c3ccccc32)cc1OC (stereo unspecified),"14.1 µM [falling, partial curve, poor fit]",–
Cc1cc(OCCCCCNCCO)ccc1Cl,"29.1 µM [falling, single point]","23.1 µM [rising, partial curve, poor fit]"
CCOc1cc(N2CCOCC2)c(OCC)cc1NC(=O)CN1C(=O)NC2(CCc3ccccc32)C1=O (stereo unspecified),"29.1 µM [rising, single point]",–
O=C(O)c1c(NC(=O)N2CCCC2)sc2c1CCCC2,"8.91 µM [falling, partial curve, poor fit]",–
CCOC(=O)c1cc(CC)sc1NC(=O)CCC(=O)O,"23.1 µM [falling, single point]",–
CC(C)COn1c(=S)[nH]c2ccccc2c1=O,"5.62 µM [rising, single point]",–
CCOc1ccc(C(=O)NCC(=O)NC(C)c2ccc(-n3ccnc3)cc2)cc1OCC (stereo unspecified),"1.78 µM [rising, partial curve, poor fit]",–
CCc1sc(NC(C)=O)nc1-c1ccccc1,–,"0.631 µM [rising, partial curve, poor fit]"
Cc1ccc(-n2ncc3c2CCCC3NC(=O)CCCN2CCCC2=O)cc1C (stereo unspecified),"20 µM [rising, single point]",–

# Arranged by molecular weight (rising): some entries from above.
SMILES,AC50 [1],AC50 [2]
CC(C)COn1c(=S)[nH]c2ccccc2c1=O,"5.62 µM [rising, single point]",–
Cc1ccccc1NC(=O)c1sc(NC(=O)C2CC2)nc1C,"35.5 µM [rising, single point]",–
CCOC(=O)N1CCN(C(=O)c2c[nH]c3ccc(S(=O)(=O)N(C)c4ccc(F)cc4)cc3c2=O)CC1,"6.31 µM [rising, single point]",–

# (further entries)

SMILES,AC50 [1],AC50 [2]
CC1(C)CC(=O)C=C(NCCN2CCN(C(=O)Nc3ccc(Cl)c(Cl)c3)CC2)C1,"6.51 µM [rising, single point]",–
O=C(NCCCN1CCCC1)c1ccc(Cn2c(=S)[nH]c3ccc(Br)cc3c2=O)cc1,"10 µM [falling, partial curve, poor fit]",–
O=CN/C=C/c1cc(O)ccc1O,"35.5 µM [falling, single point]",–
Cc1occc1C(=O)NNC(=O)Nc1ccc(Cl)c(Cl)c1,"16.4 µM [falling, single point]",–
O=C(/C=C/c1ccccc1[N+](=O)[O-])c1ccccc1Br,"35.5 µM [falling, single point]",–
O=[N+]([O-])c1cccc(C2(O)COc3ccccc3O2)c1 (stereo unspecified),"3.16 µM [rising, full curve, poor fit]",–
Cc1cc(N/N=C/c2ccc(F)cc2)nc(-n2nc(C)cc2C)n1,"1.26 µM [falling, full curve, poor fit]",–
OC(CN1C2=NCCCN2c2ccccc21)c1ccc2c(c1)OCO2 (stereo unspecified),"25.1 µM [falling, single point]",–
Cc1[nH]nc(SCC(=O)NC2CCCC2)c1[N+](=O)[O-],"20 µM [falling, single point]",–
Cc1ccc2nc(Cl)c(C3CC(c4ccco4)=NN3C(=O)CCCC(=O)O)cc2c1 (stereo unspecified),"7.94 µM [rising, partial curve, poor fit]",–
Oc1ccc(-c2n[nH]c(=S)n2-c2ccc3c(c2)OCCO3)c(O)c1,"20.6 µM [falling, partial curve]","16.4 µM [falling, partial curve, poor fit]"
Cc1[nH][nH]c(=O)c1C(c1c(C)[nH][nH]c1=O)c1cn(Cc2ccc(F)cc2)c2ccccc12,–,"29.1 µM [falling, partial curve, poor fit]"
O=C(NNC(=O)c1cc2ccccc2o1)c1ccncc1,"5.8 µM [falling, partial curve]",–
C=CCOC(=O)C1=C(C)NC(SCC)=C(C#N)C1c1ccc(Cl)cc1 (stereo unspecified),"12.6 µM [falling, partial curve, poor fit]",–
COc1ccc(C(=O)[C@@H]2CC[C@](C)(C(=O)O)C2(C)C)cc1,"16.4 µM [rising, single point]",–
CCNS(=O)(=O)c1ccc(CCC(N)=O)cc1,"20 µM [rising, single point]",–
COc1ccc(Cl)cc1NC(=O)CN(C)C(=O)c1ccc(OCc2ccccc2)c(OC)c1,"29.1 µM [falling, single point]",–
O=C(Nc1ccc(Br)c2cccnc12)c1ccc(Cn2cc([N+](=O)[O-])cn2)o1,"6.51 µM [falling, single point]",–
N#Cc1sc2nc(C3CC3)cc(-c3ccc(Cl)cc3)c2c1N,"29.1 µM [rising, single point]",–
CC(C)(C)c1cc[n+](/C(C(=S)Nc2ccccc2F)=C(/[O-])c2ccc3c(c2)OCCO3)cc1,"22.4 µM [falling, partial curve, poor fit]",–
COc1c(Cl)cc(Cl)cc1CNCc1ccccc1,"8.91 µM [rising, partial curve, poor fit]",–

SMILES,AC50 [1],AC50 [2]
COc1ccc(C2Nc3ccccc3-c3cc(C)nn32)cc1OC (stereo unspecified),"6.31 µM [rising, single point]",–
CCOC(=O)CCCSc1nc2sc(C)c(C)c2c(=O)[nH]1,"0.461 µM [falling, full curve]",–
Cc1ccc(N2CCN(/N=C/c3sccc3C)CC2)cc1,"2.31 µM [rising, single point]",–
CC(C)(C)c1ccc(OCc2ccc(C(=O)NN)o2)cc1,"3.16 µM [falling, full curve]",–
O=C(N/N=C/c1cn(-c2cccs2)nc1-c1ccccc1)c1ccccc1O,"23.1 µM [falling, partial curve]",–
Cc1noc(C)c1CSc1ccc(Br)cc1,"10 µM [rising, partial curve, poor fit]",–
CCc1cccc(C)c1NC(=O)C1CN(S(=O)(=O)c2ccccc2)CCN1S(=O)(=O)c1ccccc1 (stereo unspecified),"32.6 µM [falling, single point]","25.9 µM [rising, partial curve, poor fit]"
COc1ccc2c(c1)OC[C@H]1[C@H]2N2C(=O)CN(Cc3ccc(F)cc3)C(=O)[C@@]2(C)[C@H]1c1ccccc1,"25.9 µM [falling, single point]",–
COc1ccc(CCC(=O)OCC(=O)Nc2sccc2C(N)=O)cc1OC,"3.66 µM [falling, partial curve, poor fit]",–
COc1ccc(NC(=O)N(Cc2cc3cc(OC)c(OC)cc3[nH]c2=O)CC2CCCO2)cc1 (stereo unspecified),"0.631 µM [rising, partial curve, poor fit]",–
CC(=O)Nc1ccc(Oc2cncc(Cl)c2)nc1,"35.5 µM [rising, single point]",–
O=C(CCC(=O)Nc1cccc2ccccc12)N/N=C/c1ccco1,"1.46 µM [rising, full curve]",–
N#CCCCC#Cc1ccc2c(c1)COc1c3ccccc3nn1-2,"0.326 µM [rising, full curve, poor fit]",–
COc1ccc(CCNC(=O)C(=O)NCC2OCCN2S(=O)(=O)c2cc(F)ccc2F)cc1OC (stereo unspecified),"35.5 µM [rising, single point]",–
COc1cc2ccccc2cc1C(=O)Nc1ccccc1N1CCCC1,"7.31 µM [falling, partial curve]",–
COc1ccccc1N(CC(=O)NCc1ccccc1C)S(=O)(=O)c1ccc(C)cc1,"35.5 µM [falling, single point]",–
CN(CC1COCCO1)C(=O)c1cc(COc2c(F)cccc2F)on1 (stereo unspecified),"20 µM [rising, partial curve, poor fit]",–
Nc1c(-c2ccccc2)c(CN2CCOCC2)nn1-c1ccc(F)cc1,"6.51 µM [rising, single point]",–
Cc1ccc(NC(=O)C2C(c3ccccc3)C2(Cl)Cl)c(C)c1 (stereo unspecified),"2.06 µM [falling, partial curve, poor fit]",–
CCS(=O)(=O)N1Cc2ccccc2CC1C(=O)Nc1ccc(F)c(F)c1F (stereo unspecified),"2.82 µM [falling, full curve]",–
Cc1cccc(OCc2nnc(SCc3nc4ccccc4c(=O)[nH]3)o2)c1,"5.8 µM [rising, partial curve, poor fit]",–

# Source: PubChem BioAssay AID493014 (National Center for Advancing Translational Sciences (NCATS), 2011)
